Laboratory results: PubChem BioAssay AID504744 (Drosophila RNAi Screening Center, 2011)

Purpose: 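Uncover factors, including feedback loops, that control dAkt activation in fly cells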 (primary screen)
System: Drosophila Kc167 cells
Reagents: long dsRNA against Drosophila genes, 250 ng dsRNA per well of a 384-well plate
Duration: 3 days of knock-down, then overnight serum-free starvation before stimulation
Challenge: bovine insulin at 387 nM for 10 minutes after 12 h without serum
Measured: 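In-cell antibody fluorescence for phospho-dAkt in each well over DNA-dye signal, with log2 residuals expressed as z-scores adjusted for cell count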
Hit rule: 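Hit in the insulin screen when the two-replicate mean z-score is more extreme than plus or minus 2.5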
In all, the deposit lists about 23,000 reagents; this is a random part of those that have a named target and a result. In the full data, 98 (0.43%) are marked active. 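Only hit calls are given; the phospho-dAkt signals, z-scores and hit direction were not deposited.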 A plus sign joins genes that one reagent is predicted to hit.

gene | amplicon | activity call
CG9674 (GeneID 39878) | DRSC11088 | inactive
CG9674 (GeneID 39878) | DRSC11089 | inactive
Tsf1 (GeneID 32821) | DRSC20296 | inactive
DptB (GeneID 37184) | DRSC06001 | inactive
CG6083 (GeneID 39305) | DRSC10580 | inactive
MED16 (GeneID 37535) | DRSC04506 | inactive
CG34160 (GeneID 5740175) | DRSC01131 | inactive
beat-Vb (GeneID 41583) | DRSC12940 | inactive
beat-Vb (GeneID 41583) | DRSC14844 | inactive
beat-Vb (GeneID 41583) | DRSC14845 | inactive
c-cup (GeneID 33360) | DRSC00458 | inactive
bip1 (GeneID 38891) | DRSC11327 | inactive
eff (GeneID 41785) | DRSC16940 | active
Cyp311a1 (GeneID 32170) | DRSC20239 | inactive
CG30491 (GeneID 35704) | DRSC21472 | inactive
St1 (GeneID 37742) | DRSC04504 | inactive
CG8219 (GeneID 38722) | DRSC10971 | inactive
fs(1)N (GeneID 45973) | DRSC18578 | inactive
IM33 (GeneID 33592) | DRSC00476 | inactive
a10 (GeneID 39906) | DRSC11319 | inactive
Sas-6 (GeneID 43555) | DRSC15061 | inactive
hyd (GeneID 41181) | DRSC16971 | inactive
Mcm6 (GeneID 31603) | DRSC18680 | inactive
Ddr (GeneID 3346209) | DRSC00922 | inactive
Ddr (GeneID 3346209) | DRSC00923 | inactive
Ddr (GeneID 3346209) | DRSC02150 | inactive
Ddr (GeneID 3346209) | DRSC03229 | inactive
Ddr (GeneID 3346209) | DRSC03230 | inactive
Ddr (GeneID 3346209) | DRSC22818 | inactive
Dg (GeneID 36773) | DRSC06718 | inactive
CrzR (GeneID 39409) | DRSC09781 | inactive
CrzR (GeneID 39409) | DRSC09782 | inactive
fd3F (retired record) (GeneID 246673) | DRSC17843 | inactive
CG11106 (GeneID 32062) | DRSC19381 | inactive
Tsp42Ei (GeneID 35618) | DRSC06189 | inactive
Klp67A + CG34456 | DRSC10420 | inactive
ecd (GeneID 38291) | DRSC08574 | inactive
BaraC (GeneID 246528) | DRSC03885 | inactive
Prosalpha3 (GeneID 37378) | DRSC04644 | inactive
MetRS-m (GeneID 41733) | DRSC16443 | inactive
MetRS-m (GeneID 41733) | DRSC16515 | inactive
CG42758 (GeneID 10178900) | DRSC10021 | inactive
CBP (GeneID 31669) | DRSC17746 | inactive
LanA (GeneID 38723) | DRSC11207 | inactive
Cyp4d14 (GeneID 45706) | DRSC18457 | inactive
CG8679 (GeneID 35395) | DRSC03109 | inactive
CG3092 (GeneID 37682) | DRSC04336 | inactive
GluRIIC (GeneID 33275) | DRSC00642 | inactive
CG6974 (GeneID 41815) | DRSC16160 | inactive
Dok (GeneID 31667) | DRSC18204 | inactive
CG13700 (GeneID 40013) | DRSC10049 | inactive
MRP (GeneID 34686) | DRSC02942 | inactive
sif (GeneID 43892) | DRSC08759 | inactive
sif (GeneID 43892) | DRSC11395 | inactive
sif (GeneID 43892) | DRSC22065 | inactive
sif (GeneID 43892) | DRSC22828 | inactive
Gr58b (GeneID 37502) | DRSC04140 | inactive
Obp22a (GeneID 246672) | DRSC00088 | inactive
CG34342 (GeneID 5740152) | DRSC09756 | inactive
CG34342 (GeneID 5740152) | DRSC22515 | inactive
Muc68D (GeneID 39326) | DRSC10569 | inactive
betaNACtes3 (GeneID 326224) | DRSC20183 | inactive
Vha14-1 (GeneID 36731) | DRSC07571 | inactive
CG6277 (GeneID 43251) | DRSC16008 | inactive
CG31418 (GeneID 42084) | DRSC21780 | inactive
psidin (GeneID 42389) | DRSC15660 | inactive
Pex11c (GeneID 42751) | DRSC14677 | inactive
CG13318 (GeneID 41048) | DRSC14581 | inactive
Theg (GeneID 42585) | DRSC16023 | inactive
GILT3 (GeneID 42787) | DRSC14672 | inactive
CG15734 (GeneID 32177) | DRSC19701 | inactive
kuz (GeneID 34772) | DRSC03555 | inactive
CG40486 (GeneID 3355162) | DRSC20619 | inactive
mRpL36 (GeneID 59151) | DRSC10337 | inactive
Pburs (GeneID 34845) | DRSC02483 | inactive
Mccc1 (GeneID 43750) | DRSC15417 | inactive
CG13258 (GeneID 34959) | DRSC02244 | inactive
CG6324 (GeneID 32481) | DRSC19985 | inactive
beag (GeneID 41091) | DRSC15296 | inactive
CG1750 (GeneID 43699) | DRSC15240 | inactive
Ir85a (GeneID 41052) | DRSC14382 | inactive
emc (GeneID 38091) | DRSC08715 | inactive
mbf1 (GeneID 39842) | DRSC11365 | inactive
RpS16 (GeneID 37580) | DRSC04442 | inactive
beat-Vc (GeneID 41575) | DRSC12927 | inactive
beat-Vc (GeneID 41575) | DRSC14849 | inactive
Art2 (GeneID 33631) | DRSC00627 | inactive
DnaJ-1 (GeneID 38643) | DRSC11145 | active
CG13681 (retired record) (GeneID 38892) | DRSC08906 | inactive
CG13681 (retired record) (GeneID 38892) | DRSC08907 | inactive
CG13681 (retired record) (GeneID 38892) | DRSC10038 | inactive
CG13681 (retired record) (GeneID 38892) | DRSC10039 | inactive
CG13681 (retired record) (GeneID 38892) | DRSC10927 | inactive
CG13681 (retired record) (GeneID 38892) | DRSC10929 | inactive
snRNA:U1:95Cc (GeneID 3772462) | DRSC13640 | inactive
Lcp2 (GeneID 35818) | DRSC07456 | inactive
Non1 (GeneID 35963) | DRSC05954 | inactive
esn (GeneID 53557) | DRSC05039 | inactive
esn (GeneID 53557) | DRSC07612 | inactive
eIF4H1 (GeneID 49809) | DRSC20276 | inactive
Brd (GeneID 39620) | DRSC09685 | inactive
san (GeneID 44724) | DRSC07695 | inactive
Moe (GeneID 31816) | DRSC18684 | inactive
wap (GeneID 33131) | DRSC20626 | inactive
CG13843 (GeneID 42668) | DRSC14693 | inactive
TwdlT (GeneID 44790) | DRSC16677 | inactive
TwdlT (GeneID 44790) | DRSC21540 | inactive

Part of the list above, set out differently.
gene	amplicon	activity call
mbf1 (GeneID 39842)	DRSC11365	inactive
RpS16 (GeneID 37580)	DRSC04442	inactive
beat-Vc (GeneID 41575)	DRSC12927	inactive
beat-Vc (GeneID 41575)	DRSC14849	inactive
Art2 (GeneID 33631)	DRSC00627	inactive
